For test [1], the target named is T1, human CXCR4 (human, UniProt P61073-2 2-356). Briefly: [125I]-CXCL12 competition binding, periplasm 1:10, HEK293T-CXCR4 membranes, primary screen.
The target of test [2] is T1, human CXCR4. The test is described as follows: [125I]-CXCL12 competition binding, periplasm 1:10, HEK293T-CXCR4 membranes, second screen.
Test [3] addresses T1, human CXCR4. Briefly: phage ELISA: monoclonal phage on coated CHO-CXCR4 membranes against CHO membranes with a non relevant GPCR (-).
For test [4], the target named is T2, constitutively active CXCR4 mutant N119A (UniProt P61073 1-352). The test is described as follows: competition with [125I]-CXCL12, membranes of HEK293T cells expressing CXCR4 N119A (N3.35A).
In test [5] the target is T1, human CXCR4. Briefly: competition with [125I]-238D4, membranes of HEK293T cells expressing CXCR4.
In test [6] the target is T1, human CXCR4. The test is described as follows: competition binding vs [125I]-CXCL12, HEK293T-CXCR4 membranes.
In test [7] the target is T1, human CXCR4. Briefly: screen of periplasma fractions, competition vs [125I]-CXCL12, HEK293T-CXCR4 membranes.
Test [8] addresses T1, human CXCR4. Briefly: total binding of [125I]-238D4 to membranes of HEK293T cells expressing CXCR4 or CXCR3, without (-) and with 3 µM AMD3100.
Test [9] addresses T1, human CXCR4. Briefly: competition with [125I]-CXCL12, membranes of HEK293T cells expressing CXCR4.
The target in test [10] is T1, human CXCR4. The test is described as follows: competition with [125I]-238D2, membranes of HEK293T cells expressing CXCR4.
Test [11] has as its target T2, constitutively active CXCR4 mutant N119A. The test is described as follows: competition binding vs [125I]-CXCL12, membranes with CXCR4 (N119A).
Test [12] shares this target. The test is described as follows: competition binding vs [125I]-CXCL12, membranes with CXCR4 (N119A); no plateau at 2 µM.
Test [13] addresses T1, human CXCR4. The test is described as follows: total binding of the 125I-labelled Nanobody to membranes.
For test [14], the target named is T1, human CXCR4. Briefly: competition binding vs [125I]-238D2, HEK293T-CXCR4 membranes; purified Nanobody at 0.5 µM, tracer [125I]-238D2.
For test [15], the target named is T1, human CXCR4. The test is described as follows: competition binding vs [125I]-CXCL12, HEK293T-CXCR4 membranes; purified Nanobody at 0.5 µM, tracer [125I]-CXCL12.
Test [16] deals with T1, human CXCR4. The test is described as follows: competition binding vs [125I]-238D4, HEK293T-CXCR4 membranes; purified Nanobody at 0.5 µM, tracer [125I]-238D4.

Chains of the proteins cited; added tags and fusions are not shown. Lines headed by an entry give the natural chain unless they say otherwise; changes in a name come on top.
UniProt P61073: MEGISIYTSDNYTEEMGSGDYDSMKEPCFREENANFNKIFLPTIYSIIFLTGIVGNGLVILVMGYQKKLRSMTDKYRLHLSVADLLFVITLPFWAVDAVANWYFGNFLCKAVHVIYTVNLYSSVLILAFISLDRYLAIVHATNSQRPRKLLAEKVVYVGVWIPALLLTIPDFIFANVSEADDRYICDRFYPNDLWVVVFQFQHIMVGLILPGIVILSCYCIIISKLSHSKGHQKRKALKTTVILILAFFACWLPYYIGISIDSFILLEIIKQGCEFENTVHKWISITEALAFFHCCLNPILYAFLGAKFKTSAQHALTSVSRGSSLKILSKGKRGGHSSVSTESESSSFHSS

Substitutions are numbered along the chain they refer to. Results are given in words; binding and its absence hold for the method and conditions named. Some entries that bind do so weakly or less than the wild type.

B1: 238C04 (VHH)
VHH: EVQLVESGGGLVQAGGSLRLSCKASGGTFNNYAMGWFRRAPGKEREFVAAITRSGVRSGVSAIYGDSVKDRFTISRDNVKNTLYLQMNTLKPEDTAVYTCAASAIGSGALRRFEYDYSGQGTQVTVSS
Take B1: the binding result with human CXCR4 [1] and in the test with human CXCR4 [2] was “binds” in each case.

B2: Nanobody 238D4 (VHH)
VHH: B1 VHH with V5M, K23A, G27R, V79A, T89S
notes: Monovalent llama VHH; also called 238G3; 238D4, G3
With B2, the binding result (with human CXCR4 [3]; in test [4]; with human CXCR4 [5]; with human CXCR4 [6]; in the test with human CXCR4 [1]; with human CXCR4 [7]) was “binds” in each case. Further, the binding entry (with human CXCR4 [8]; with human CXCR4 [2]; with human CXCR4 [9]; with human CXCR4 [10]; in test [11]; in [12]) was “binds” each time. In addition, the binding entry with human CXCR4 [13] is listed as “binds”.

B3: 237D04 (VHH)
VHH: EVQLVESGGGLVQPGGSLRLSCAASGFTFDDYAMSWVRQAPGKGLEWVSAISWNGGSADYADSVKGRFTISRDNAKNTLYLQMNSLKSEDTAVYYCAKDQGPFYSGTYYYTKGYAYWGQGTQVTVSS
Regarding B3, the binding result with human CXCR4 [1] and with human CXCR4 [2] was “binds” in each case.

B4: Nanobody 237A6 (VHH)
VHH: EVQLVESGGGLVQAGGSLRLSCAASGSIFSLNAMGWYRQAPGKQRELVAGITSSTSTYYADSVKGRFTISRDNTKNTVYLQMNSLKPEDTAVYYCNVDCPDYYSDYECPLEDRGQGTQVTVSS
notes: Monovalent VHH
On to B4, for which the binding entry is on record as “no binding (tested: log -6.3 M)” in the test with human CXCR4 [5]; “no binding (tested: 0.5 µM)” with human CXCR4 [14]; “no binding (tested: 0.5 µM)” in the test with human CXCR4 [15]; “no binding (tested: 0.5 µM)” with human CXCR4 [16]; “no binding (tested: log -6.3 M)” with human CXCR4 [9]; “no binding (tested: log -6.3 M)” with human CXCR4 [10].

B5: 238D4-20GS-238D4 (VHH)
chain: EVQLMESGGGLVQAGGSLRLSCAASGRTFNNYAMGWFRRAPGKEREFVAAITRSGVRSGVSAIYGDSVKDRFTISRDNAKNTLYLQMNSLKPEDTAVYTCAASAIGSGALRRFEYDYSGQGTQVTVSSGGGGSGGGGSGGGGSGGGGSEVQLMESGGGLVQAGGSLRLSCAASGRTFNNYAMGWFRRAPGKEREFVAAITRSGVRSGVSAIYGDSVKDRFTISRDNAKNTLYLQMNSLKPEDTAVYTCAASAIGSGALRRFEYDYSGQGTQVTVSS
notes: Bivalent Nanobody, 20-residue GS linker; also called L13
Turning to B5, the binding entry in the test with human CXCR4 [9] was “binds”.

B6: Nanobody 237D1 (VHH)
VHH: EVQLVESGGGLAQPGGPLRLTCEASGVIYSVNDMGWYRQAPGKQRELVAVITSGGGTNYVDSVKGRFTISGDNRKKTVYLQMNSLKPEDTAVYYCSIYYSSGISTLRSWGQGTQVTVSS
notes: Monovalent VHH
With B6, the binding result in the test with human CXCR4 [5] is on record as “no binding (tested: log -6.3 M)”; in the test with human CXCR4 [14], “no binding (tested: 0.5 µM)”; in the test with human CXCR4 [15], “no binding (tested: 0.5 µM)”; with human CXCR4 [16], “no binding (tested: 0.5 µM)”; with human CXCR4 [9], “no binding (tested: log -6.3 M)”; with human CXCR4 [10] it was “no binding (tested: log -6.3 M)”.

B7: Nanobody 237G7 (VHH)
VHH: EVQLVESGGGLVQPGGSLRLSCAASSFIGNYHAIVWLRQAPGKELEGVSCITSRDSITYYASFVKGRFTISRDDAKNTVYLQMNNLKPEDTAVYYCAVBTSMTCPTLIVRFNYRGQGTQVTVSS
notes: Monovalent VHH
For the molecule B7, the binding entry is “no binding (tested: log -6.3 M)” with human CXCR4 [5]; “no binding (tested: 0.5 µM)” with human CXCR4 [14]; “no binding (tested: 0.5 µM)” with human CXCR4 [15]; “no binding (tested: 0.5 µM)” with human CXCR4 [16]; “no binding (tested: log -6.3 M)” with human CXCR4 [9]; “no binding (tested: log -6.3 M)” in the test with human CXCR4 [10].

Values taken from US20110206660A1 (Ablynx, published 2011).
